Data published in PMC4330390 (Nucleic Acids Research, 2015).
Positions count from the first letter of the chain named. No constants are given. Whether binding was seen depends on the method and setting. Some results given as binding are weak or reduced against the parent protein; the word gives no strength.

Legend:
[1] = biological target: T1, NXF1^ΔNΔUBA+3A (Ile360 + Phe362 + Val364 to alanine) (human) (UniProt Q9UBU9); test: co-purification of co-expressed proteins; NXF1 constructs (wild type and mutants) made in E. coli with NXT1 and purified; NXT1 found with the purified NXF1
T1 sequence: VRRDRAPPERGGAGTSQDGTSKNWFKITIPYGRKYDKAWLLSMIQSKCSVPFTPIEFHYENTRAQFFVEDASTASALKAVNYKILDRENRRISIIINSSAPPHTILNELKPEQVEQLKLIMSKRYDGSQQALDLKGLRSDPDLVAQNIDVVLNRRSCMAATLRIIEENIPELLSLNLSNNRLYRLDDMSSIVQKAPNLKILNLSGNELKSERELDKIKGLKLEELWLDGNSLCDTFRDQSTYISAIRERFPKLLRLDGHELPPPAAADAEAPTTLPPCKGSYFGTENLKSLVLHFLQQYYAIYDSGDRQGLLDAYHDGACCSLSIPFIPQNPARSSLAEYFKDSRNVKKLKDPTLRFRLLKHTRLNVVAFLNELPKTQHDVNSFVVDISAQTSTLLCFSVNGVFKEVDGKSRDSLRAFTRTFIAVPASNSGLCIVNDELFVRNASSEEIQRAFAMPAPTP

[2] = biological target: T2, NXF1^ΔNΔUBA (Homo sapiens NXF1 residues 96-555) (human) (UniProt Q9UBU9); test: as above
T2 sequence: T1 sequence with A265I, A267F, A269V

[3] = biological target: T2, NXF1^ΔNΔUBA (Homo sapiens NXF1 residues 96-555) (human); test: crystal structure; crystals of the purified NXF1^ΔNΔUBA:NXT1 complex, 18°C, 9% PEG 6000, 1 M LiCl, 0.1 M Na citrate pH 5.1; P1, 3.4 Å, two copies of the complex in the asymmetric unit; both purified

Measured: binding

B1: H. sapiens NXT1 (protein, UniProt Q9UKK6 2-140)
chain: ASVDFKTYVDQACRAAEEFVNVYYTTMDKRRRLLSRLYMGTATLVWNGNAVSGQESLSEFFEMLPSSEFQISVVDCQPVHDEATPSQTTVLVVICGSVKFEGNKQRDFNQNFILTAQASPSNTVWKIASDCFRFQDWAS
binds: all assays above
